Paper PMC12077264

By UniProt entry, the sequences of proteins in these tests, tags left out. Where a name states a change or a piece, a line headed by the entry shows the natural chain unless it says otherwise.
UniProt P69490: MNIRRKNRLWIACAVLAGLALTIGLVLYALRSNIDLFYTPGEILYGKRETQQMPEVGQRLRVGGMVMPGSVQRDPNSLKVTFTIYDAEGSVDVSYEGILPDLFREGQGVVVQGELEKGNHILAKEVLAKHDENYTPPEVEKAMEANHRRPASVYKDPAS

What was measured:
Test in all cases: pull-down; GST affinity purification via the N-terminal GST tag on CcmC of co-expressed GST:CcmCDE(H130A) or GST:CcmC(D:flag)E(H130A) from E. coli; 5 ug affinity purified protein on SDS-PAGE, Coomassie stain and α-GST, α-CcmE, α-FLAG immunoblots
[1] = target: T1, GST:CcmC(A97C), in GST:CcmCDE(H130A) (E. coli) (UniProt P0ABM1)
T1 sequence: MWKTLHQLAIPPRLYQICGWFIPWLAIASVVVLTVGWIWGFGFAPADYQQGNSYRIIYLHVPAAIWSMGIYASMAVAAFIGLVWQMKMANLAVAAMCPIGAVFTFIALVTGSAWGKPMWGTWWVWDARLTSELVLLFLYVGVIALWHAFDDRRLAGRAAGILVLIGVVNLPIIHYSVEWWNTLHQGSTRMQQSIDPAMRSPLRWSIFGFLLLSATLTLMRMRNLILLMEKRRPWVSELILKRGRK

[2] = target: T2, GST:CcmC(A101C), in GST:CcmCDE(H130A) (E. coli) (UniProt P0ABM1)
T2 sequence: T1 sequence with C97A, A101C

[3] = target: T3, GST:CcmC (wild type), in GST:CcmCDE(H130A) or GST:CcmC(D:flag)E(H130A) (E. coli) (UniProt P0ABM1)
T3 sequence: T1 sequence with C97A

[4] = target: T4, GST:CcmC(V102C), in GST:CcmCDE(H130A) (E. coli) (UniProt P0ABM1)
T4 sequence: T1 sequence with C97A, V102C

[5] = target: T5, GST:CcmC(N169C), in GST:CcmCDE(H130A) (E. coli) (UniProt P0ABM1)
T5 sequence: T1 sequence with C97A, N169C

[6] = target: T6, GST:CcmC(Y71C), in GST:CcmCDE(H130A) (E. coli) (UniProt P0ABM1)
T6 sequence: T1 sequence with Y71C, C97A

[7] = target: T7, GST:CcmC(M68C), in GST:CcmCDE(H130A) (E. coli) (UniProt P0ABM1)
T7 sequence: T1 sequence with M68C, C97A

binding [1]: binds
binding [2]: binds
binding [3]: binds
binding [4]: binds
binding [5]: binds
binding [6]: binds
binding [7]: binds
Substance: CcmE(H130A) (from UniProt P69490)

Residue numbers refer to the chain shown, from its start. These are yes or no findings as the source states them, for the method shown. In cells and extracts the contact can be indirect. A result given as binding can be weak or reduced; the word gives no strength. Where a sequence is shown, tags or fusion partners need not be part of it.
